# Laboratory results as given in PubChem BioAssay AID2685 (National Center for Advancing Translational Sciences (NCATS), 2010).
# The whole screen tested about 320,000 compounds, of which about 2,100 (0.66%) were called active. The inconclusive results got no clear call from the source; some entries with a clear call stand among them for comparison. Calls come from the whole dose curve; as a rule, active = well fitted inhibition curve with a large enough effect in the signal ratio, with a control signal flat (not every such curve was filed as active); inconclusive = small, poorly fitted or top-dose-only effect, or effect the other way, or a change in a side signal; inactive = flat fitted curve, though single readings scatter; the % refers to the signal ratio. Where the call is inconclusive, the potency comes from a doubtful curve fit.
# Assay: qHTS Assay for Lipid Storage Modulators in Drosophila S3 Cells
# Conditions: BODIPY lipid droplet fluorescence, 18-24 h, cells fed with added oleic acid; lipid storage change, negative = inhibition: at 46.1 µM (top of the series) unless noted
# Procedure, shortened: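 Drosophila S3 cells got compounds at several concentrations plus oleic acid (400 uM solution). Laser-scanning cytometry with 488 nm excitation read lipid droplets at 500-530 nm and cells at 575-640 nm. Percent activity was relative to 20 uM Triacsin C.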
# % is set by controls: 0 for no effect and ±100 for the full control effect; potency is the fitted concentration of half-maximal effect.
SMILES,"lipid storage change, negative = inhibition",Potency
Cc1cccc(NC(=O)c2ccc([N+](=O)[O-])s2)c1C,inconclusive: -39.8%,–
O=C(NCCCc1ccccc1)c1ccncc1,inconclusive: 34.2%,–
Cc1ccc(-n2nc(C)c(C3C(C#N)=C(N)OC4=C3C(=O)CCC4)c2Cl)cc1 (stereo not drawn),inconclusive: 22.4%,–
O=C(CCN1CCN(Cc2ccccc2)CC1)Nc1cccc(Cl)c1,–,"inconclusive: 0.13 µM [activator, partial curve, poor fit]"
CCCCCCC(=O)N1C/C=C\C(c2ccc(OC)cc2)N(Cc2ccc(F)cc2)C(=O)[C@H]1Cc1ccccc1 (stereo partly drawn),–,"inconclusive: 29.1 µM [cytotoxic, single point]"
Cc1ccc(NC(=O)CSc2nn(-c3ccccc3)c(=S)s2)cc1S(=O)(=O)N(C)C,inconclusive: -18.7%,–
O=C(CN1CCN(c2cccc(C(F)(F)F)c2)CC1)NCc1ccccc1,–,"inconclusive: 0.103 µM [falling, full curve, poor fit]"
CS(=O)(=O)Nc1ccccc1C(=O)Nc1ccccc1C(=O)N1CCCC1,inconclusive: -7.92%,–
CC(=O)N1CC[n+]2c(-c3ccc(Cl)cc3)csc21,inconclusive: -1.54%,–
O=C(NCCCn1ccnc1)c1ccc(-c2ccccc2)cc1,–,"inconclusive: 0.517 µM [activator, partial curve, poor fit]"
Cn1c(SCC(=O)c2ccc(F)cc2)nc2cccnc21,inconclusive: 110%,–
CCC1(C)NC(=O)N(CC(=O)N2CCN(c3cccc(Cl)c3)CC2)C1=O (stereo not drawn),–,"inconclusive: 3.26 µM [falling, single point]"
O=C(CN1CCOCC1)N/N=C/c1ccc(-c2cccc(Cl)c2Cl)o1,inconclusive: 6.56%,–
COc1ccc(C(=O)Nc2ccc(S(=O)(=O)N3CCCCC3)cc2)cc1,–,"inconclusive: 20.6 µM [falling, single point]"
CN(C)N=Nc1nc2c([nH]1)c(=O)n(C)c(=O)n2C,–,"inconclusive: 29.1 µM [activator, single point]"
CCCS(=O)(=O)c1c(S(=O)(=O)CCC)c2c(C(N)=O)cccn2c1C(=O)c1ccc(F)cc1,inconclusive: 14.6%,–
NC(=O)/C(=C/c1ccco1)NC(=O)/C=C/c1ccccc1,inconclusive: 22.2%,–
Cc1ccc2oc(C(=O)N(Cc3ccc(N(C)C)cc3)C3CCS(=O)(=O)C3)c(C)c2c1 (stereo not drawn),inconclusive: -30.6%,–
CC(C)COC(=O)c1ccc(N2C(=O)c3ccccc3C2=O)cc1,inconclusive: 7.74%,–
CC(C)CCOc1ccc(C(=O)NCCC(=O)N2CCOCC2)cc1,inconclusive: 23.5%,–
CC(=O)N1CCN(c2ccc(NC(=O)c3cc(Cl)ccc3Cl)cc2)CC1,–,"inconclusive: 29.1 µM [activator, partial curve, poor fit]"
COc1ccccc1C(=O)CC(=O)c1ccccc1,inconclusive: -25.2%,–
CC(C)(C)c1cc(C(=O)CCN2CCOCC2)cc(C(C)(C)C)c1O,–,active: 29.1 µM
S=C1NCN(Cc2ccco2)CN1,inconclusive: -13.5%,–

SMILES,"lipid storage change, negative = inhibition",Potency
CCOC(=O)C1CCCN(C(=O)c2cccc(S(=O)(=O)N(Cc3ccccc3)c3ccccc3OC)c2)C1 (stereo not drawn),inconclusive: -5.8%,–
COc1ccccc1NC(=O)CSc1nnnn1C1CCCCC1,–,"inconclusive: 4.61 µM [activator, single point]"
O=[N+]([O-])c1ccc(C2CCCC/C2=N\OCc2cccc(F)c2)c([N+](=O)[O-])c1 (stereo not drawn),inconclusive: 44.6%,–
Nc1c(NC2CCCCC2)c2ccccc2oc1=O,inconclusive: -24.9%,–
Oc1c(Br)cc(Br)cc1CNc1cccc2cccnc12,–,"inconclusive: 23.1 µM [activator, partial curve]"
O=C(c1cn2ccccc2n1)N1CCCC(Nc2ccc(F)c(F)c2)C1 (stereo not drawn),inconclusive: 18.4%,–
CC1CCCCC12NC(=O)N(CC(=O)NCc1ccco1)C2=O (stereo not drawn),inconclusive: 13.3%,–
Cc1ccccc1CN(C)CC(=O)Nc1ccccc1Oc1ccccc1,inconclusive: -3.62%,–
Cc1ccc(-c2nnn(CC(=O)Nc3ccccc3-c3ccccc3)n2)c(-n2cnnn2)c1,inconclusive: -5.59%,–
Cc1c(C(=O)O)sc2nc(/C=C/c3cccc(F)c3)[nH]c(=O)c12,inconclusive: 13.7%,–
NC(=O)SCC(=O)Nc1cccc(Cl)c1,–,"inconclusive: 6.51 µM [falling, single point]"
C/C(=N/NC(=O)c1ccc(Cn2cccn2)o1)c1cccc(NC(=O)c2ccncc2)c1,–,"inconclusive: 0.146 µM [activator, full curve]"
Cc1cc(C)n(-c2cccc(F)n2)n1,inconclusive: 74.9%,–
Nc1nc(Cl)c2ncn(C3OC(CO)C(O)C3O)c2n1 (stereo not drawn),inconclusive: 5.41%,–
CC1CC(=O)Nc2ccccc2N1S(=O)(=O)c1ccc(Cl)cc1 (stereo not drawn),–,"inconclusive: 0.146 µM [falling, full curve]"
CN(C)S(=O)(=O)N(CCN1CCOCC1)Cc1ccccc1F,–,active: 9.2 µM
C=CCN1C=C/C(=C\C=C(C#N)C#N)c2ccccc21,–,"inconclusive: 2.91 µM [falling, full curve, poor fit]"
CCOc1cc(/C=C(\C#N)C(N)=O)ccc1OS(=O)(=O)c1ccccc1,–,"inconclusive: 29.1 µM [falling, single point]"
CCc1ccc(S(=O)(=O)NCc2cn3cccc(C)c3n2)s1,inconclusive: -25.8%,–
CCCc1nnc(SCC(=O)N2CCOCC2)n1Cc1ccco1,–,"inconclusive: 8.2 µM [falling, partial curve, poor fit]"
COCc1c(C(=O)OCC(=O)NCCN2C(=O)CSC2=O)oc2ccccc12,–,"inconclusive: 1.3 µM [falling, full curve, poor fit]"
Cn1c(N)c(C(=O)CSc2n[nH]c(N)n2)c(=O)n(C)c1=O,inconclusive,–
CN(CCOc1ccccc1)C(=O)c1ccc(N2CCCC2)c([N+](=O)[O-])c1,–,"inconclusive: 25.9 µM [falling, partial curve, poor fit]"
CCC(C(=O)NCc1ccc(C)cc1)c1ccccc1 (stereo not drawn),–,"inconclusive: 0.0046 µM [activator, full curve, poor fit]"

# Laid out differently: results already given
SMILES	lipid storage change, negative = inhibition	Potency
CCOC(=O)C1CCCN(C(=O)c2cccc(S(=O)(=O)N(Cc3ccccc3)c3ccccc3OC)c2)C1 (stereo not drawn)	inconclusive: -5.8%	–
COc1ccccc1NC(=O)CSc1nnnn1C1CCCCC1	–	inconclusive: 4.61 µM [activator, single point]
